Data source: PubChem BioAssay AID1053208 (Peter MacCallum Cancer Centre, 2014)

Purpose: 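Genes whose silencing cuts survival of bone tumour cells only with doxorubicin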 (primary screen)
Cell system: mouse osteosarcoma cells, early-passage culture from an engineered mouse model of fibroblastic bone tumour
Reagent: siRNA pool against mouse genes, 40 nM
Timing: about 120 h (48 h before drug, then 72 h with drug)
Conditions: doxorubicin 100 nM for 72 h, roughly 30-40% inhibitory dose
Measured: 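Luminescent ATP signal taken as viability with or without 100 nM doxorubicin for 72 h; mean of two wells set against non-targeting siRNA and turned into robust z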
Scale: viability z-score with doxorubicin: higher = more viable cells under doxorubicin; viability z-score without drug: higher = more viable cells with knock-down alone
Call rule: 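a pool counts as active when its viability z-score with doxorubicin is -2 or below and its z-score without drug lies between -2 and 2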
In all, the deposit lists about 17,000 reagents; this is a random part of them. 788 of all reagents (4.7%) were called active. 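Calls rest on z-score classes alone; an extra cut-off of viability at most 70% of control was not applied to them.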 Unmarked entries are inactive. Further read-outs or replicates are left out here.

no.	gene symbol	combined z-score class	viability z-score with doxorubicin	viability z-score without drug
1	Or52d1	low cell count with doxorubicin only (active)	-2.7	-0.17
2	Rapgef2	no change with or without drug	0.56	0.34
3	Slc16a7	no change with or without drug	-1.57	-1.85
4	Palmd	no change with or without drug	-1.12	0.84
5	Slc35d2	no change with or without drug	0.45	0.17
6	Rab33a	no change with or without drug	0.45	0.34
7	Trim45	high cell count with doxorubicin only	2.02	0.51
8	Spata19	no change with or without drug	1.12	1.01
9	Nemp1	no change with or without drug	0.67	0.17
10	Cenpo	low cell count without drug only	1.57	-3.2
11	Tspan7	no change with or without drug	-1.35	0.84
12	Erich2	no change with or without drug	-0.9	0.84
13	Fbxl19	no change with or without drug	0.34	0.67
14	Wac	no change with or without drug	1.01	1.35
15	Creb3l3	no change with or without drug	-0.67	1.01
16	Prl7c1	no change with or without drug	0.45	1.01
17	Sypl1	no change with or without drug	-1.12	0.51
18	Or4a39	no change with or without drug	-0.45	-0.51
19	Ap2a1	no change with or without drug	1.01	1.18
20	Atr	no change with or without drug	-0.22	-1.01
21	Csl	no change with or without drug	0.45	-0.51
22	Htr1b	no change with or without drug	1.8	-1.18
23	Ssr3	no change with or without drug	-0.22	-1.01
24	Btg2	no change with or without drug	-0.9	-0.51
25	Pcdhgb8	no change with or without drug	-0.45	0
26	Otulinl	no change with or without drug	0.11	-0.34
27	Actrt1	no change with or without drug	-0.67	-0.51

Next part, starting with the last 5 of the part before.
no.	gene symbol	combined z-score class	viability z-score with doxorubicin	viability z-score without drug
23	Ssr3	no change with or without drug	-0.22	-1.01
24	Btg2	no change with or without drug	-0.9	-0.51
25	Pcdhgb8	no change with or without drug	-0.45	0
26	Otulinl	no change with or without drug	0.11	-0.34
27	Actrt1	no change with or without drug	-0.67	-0.51
28	Klra17	no change with or without drug	0.56	1.69
29	Gpr20	no change with or without drug	-0.22	1.52
30	Slc5a4b	low cell count with doxorubicin only (active)	-2.14	-0.17
31	Or4c121	high cell count without drug only	0.11	2.53
32	BC030500	no change with or without drug	-0.9	-0.51
33	Mvk	no change with or without drug	1.12	0.67
34	Mrpl14	no change with or without drug	0	-0.67
35	6430571L13Rik	no change with or without drug	0.34	1.52
36	Spaca1	no change with or without drug	-1.01	1.18
37	Tlr11	no change with or without drug	-0.22	0.17
38	Or7g33	no change with or without drug	-0.45	1.85
39	Adck2	no change with or without drug	-0.11	1.18
40	Smad2	no change with or without drug	1.12	0.17
41	D930020B18Rik	high cell count without drug only	0.45	2.19
42	Or12e9	no change with or without drug	0	0.51
43	Slc2a8	no change with or without drug	0	0.67
44	Med15	low cell count with doxorubicin only (active)	-3.48	0.51
45	Senp8	no change with or without drug	-1.35	-0.84
46	Ubqln3	no change with or without drug	-1.12	0.34
47	Tars2	no change with or without drug	0.34	-0.17
48	Mettl9	no change with or without drug	1.01	-0.17
49	Calhm2	no change with or without drug	0.34	1.52
50	Ildr1	no change with or without drug	0.45	0.84
